Source: PubChem BioAssay AID485314 (National Center for Advancing Translational Sciences (NCATS), 2010)
Values joined by “and” are separate entries in the source; they are usually repeats but may differ in a detail not shown here. Identical values can stand only once. Among all 340,000 compounds or so, about 4,500 (1.3%) were called active. Inconclusive results, whose numbers are uncertain, are shown with a selection of clear calls. Calls come from the whole dose curve; as a rule, active = well fitted inhibition curve with a large enough effect; inconclusive = small, poorly fitted or top-dose-only effect, or another doubt; inactive = no such curve, though single readings can be large or run the other way. Where the call is inconclusive, the potency comes from a doubtful curve fit.

Each compound was assayed against DNA polymerase beta (Homo sapiens) (UniProt P06746) (assay: qHTS Assay for Inhibitors of DNA Polymerase Beta). Conditions: Pol beta primer extension/strand displacement, fluorescence kinetic; activity change, negative = inhibition: at 114 µM (top of the series).
In short: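 Values derive from four-parameter Hill fits of normalized kinetic data: reads at 0 and 10 min following addition of 50 nM substrate to 10 nM Pol beta preincubated 15 min with compound.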
% is set by controls: 0 for no effect and ±100 for the full control effect; potency is the fitted concentration of half-maximal effect.

SMILES	Potency	activity change, negative = inhibition
Cc1cccc(NC(=O)c2c(C)cc(C)nc2SCC(=O)Nc2c(C)cc(C)cc2C)c1	inconclusive: 44.7 µM [inhibitor, partial curve]	–
OC(CN(c1ccccc1)c1ccccc1)Cn1cnc2ccccc21 (stereo unspecified)	inconclusive: 25.1 µM [inhibitor, partial curve, poor fit]	–
CCc1ccc(-c2nc3cc(NC(=O)c4cc5ccccc5cc4OC)ccc3o2)cc1	–	inconclusive: -43.3% [inhibitor]
O=C(OC1CCCCC1)c1ccc2c(c1)C1C=CCC1C(C(=O)O)N2 (stereo unspecified)	active: 2.24 µM	–
Cc1ccc(NC(=O)c2cn3c4c(ccc(Cl)c4c2=O)OC(C)C3)c(C)c1 (stereo unspecified)	–	inactive: 21.5%
CC(/C=C/c1ccco1)=N/NC(=O)c1ccc(C)nc1	–	inactive: -17.4%
COc1ccc(CNC(=O)c2cc(-c3cccc(Cl)c3)on2)cc1	–	inactive: -1.3%
Cc1ccccc1Nc1c(-c2ccc(Cl)s2)nc2c(C)cccn12	active: 11.2 µM	–
COc1ccc2[nH]c(=O)c(CNc3cc(C)ccc3C)cc2c1	–	inconclusive: -32.5% [inhibitor]
Cc1cc(C)cc(NC(=O)CCCN2C(=O)COc3ccc(C)cc32)c1	inconclusive: 0.282 µM [inhibitor, full curve, poor fit]	–
O=C(O)C/C(=C\c1ccc(N2CCOCC2)c([N+](=O)[O-])c1)c1nc2ccccc2s1	inconclusive: 39.8 µM [inhibitor, partial curve]	–
Nc1nc(Nc2cccc(F)c2)nc(NCCO)c1[N+](=O)[O-]	inconclusive: 20 µM [inhibitor, partial curve]	–
O=C(Nc1ccccc1N1CCN(C(=O)c2ccc(Cl)cc2)CC1)c1ccc2c(c1)OCO2	inconclusive: 89.1 µM [inhibitor, single point]	–
O=C(NCc1ccco1)C1CCCN(S(=O)(=O)c2cccc3nonc23)C1 (stereo unspecified)	inconclusive: 50.1 µM [inhibitor, partial curve]	–
N#Cc1c(-n2ncnc2-c2ccc(Br)cc2)sc2c1CCCCC2	–	inactive: -0.246%
COc1ccc(OC)c(NC(=O)CCc2c(C)nn(-c3ccc(N4CCCC4)nn3)c2C)c1	–	inactive: 1.85%
COc1cc2[nH]c(=O)n(CCC(=O)NC3CCCC3)c(=O)c2cc1OC	inconclusive: 89.1 µM [inhibitor, single point]	–
CC(C)(C)OC(=O)N1CCC(c2c(C(=O)NCCCN3CCc4ccccc4C3)cnn2-c2ccccc2)CC1	–	inactive: -1.45%
O=C(Nc1nc2ccc(Cl)cc2s1)c1ccc(Br)o1	inconclusive: 70.8 µM [inhibitor, single point]	–
Cc1c(CCC(=O)O)c(=O)oc2c(C)c3occ(-c4ccc(Br)cc4)c3cc12	–	inactive: 42.5%
COc1cccc(CN(C(=O)c2oc3ccc(Br)cc3c2C)C2CCS(=O)(=O)C2)c1 (stereo unspecified)	–	inactive: 1.26%
COc1ccc(CN(Cc2ccccn2)C(=O)CN2C(=O)C(C)Oc3ccccc32)cc1 (stereo unspecified)	–	inactive: 8.35%
Cn1nnnc1SCC1=C(C(=O)O)N2C(=O)C(NC(=O)Cn3nc(C(F)F)cc3C3CC3)C2SC1 (stereo unspecified)	active: 17.8 µM	–
CS(=O)(=O)N1CCN(c2ccc(NC(=O)C(c3ccccc3)c3ccccc3)cc2)CC1	inconclusive: 39.8 µM [inhibitor, single point]	–

SMILES	Potency	activity change, negative = inhibition
Cc1ccc(C)n1-c1cccc(NC(=O)c2ccccc2)c1	active: 15.8 µM	–
CCC(=O)N1CCN(c2ccccc2NC(=O)COc2ccc(C(C)C)cc2)CC1	inconclusive: 89.1 µM [inhibitor, single point]	–
NC(=O)c1nsc(C(=O)N(c2ccccc2)C(C(=O)NC2CCCC2)c2ccncc2)c1N (stereo unspecified)	inconclusive: 0.141 µM [inhibitor, full curve, poor fit]	–
O=C(Nc1cnc2ccccn2c1=O)c1ccc(F)cc1	inconclusive: 89.1 µM [inhibitor, single point]	–
CCCCc1ccc(NC(=O)CC(C)=O)cc1	inconclusive: 31.6 µM [inhibitor, partial curve]	–
Cc1ccc(N2C(=O)CC(N3CCN(c4ccc(F)cc4)CC3)C2=O)c(C)c1 (stereo unspecified)	–	inactive: 17.4%
COc1ccc(N2Cc3cccc(C(=O)Nc4ccc(C)cc4)c3C2=O)cc1	active: 12.6 µM	–
Cc1ccc(O)c(N=CC2=C(O)c3ccccc3C2=O)c1	inconclusive: 89.1 µM [inhibitor, single point]	–
CCC(=O)N1CCc2cc(S(=O)(=O)N3CCN(c4ccccc4F)CC3)ccc21	–	inactive: 0.725%
CC(C)(C)c1ccc(OCc2cnc(Cl)s2)cc1	inconclusive: 4.47 µM [inhibitor, full curve]	–
C=CC[n+]1c(/C=C2\C=Cc3cc(C)ccc3N2CC)ccc2ccccc21	active: 31.6 µM	–
CC1(C)CC(=O)C2=C(C1)c1c(ccc3ccccc13)NC2c1ccco1 (stereo unspecified)	inconclusive: 20 µM [inhibitor, full curve]	–
Cc1ccc(-c2cc(N)n(Cc3cccc(Cl)c3)n2)cc1	inconclusive: 0.398 µM [inhibitor, full curve, poor fit]	–
COc1cccc(-n2cc(C(=O)NCCCOC(C)C)c3ccccc3c2=O)c1	–	inactive: 1.31%
Cc1ccc(-n2nc(C(=O)NCc3ccc(F)cc3Cl)c3c4ccccc4n(C)c3c2=O)cc1	inconclusive: 89.1 µM [inhibitor, single point]	–
COc1ccc(NS(=O)(=O)c2cc(N)ccc2N2CCOCC2)cc1	–	inactive: 2.71%
Cc1ccc(OCCn2cnc3cc([N+](=O)[O-])ccc3c2=O)cc1	–	inactive: 35.8%
C=CCn1c(=O)/c(=C2/Sc3cc(OC)ccc3N2C)s/c1=C1\C(=O)N(CC)C(=S)N1C	inconclusive: 89.1 µM [inhibitor, single point]	–
CCC(=O)N1CCc2cc(CNC(=O)Cc3ccc(OC)c(OC)c3)ccc21	–	inactive: 9.03%
O=C1SC(SCc2ccccc2)=N/C1=C\c1ccc(C(=O)O)cc1	–	inactive: 4.06%
COc1ccc(-c2csc(NC(=O)c3cc(C)oc3C)n2)cc1OC	inconclusive: 63.1 µM [inhibitor, single point]	–
O=c1c(C(c2ccc(Br)cc2)c2c(O)nc3n(c2=O)CCCS3)c(O)nc2n1CCCS2	inconclusive: 79.4 µM [inhibitor, single point]	–
CCc1nnc(NC(=O)CCC(=O)Nc2ccccc2)s1	inconclusive: 28.2 µM [inhibitor, single point]	–
COC(=O)c1sccc1-c1ccc(C(N)=O)o1	inconclusive: 0.141 µM [inhibitor, full curve, poor fit]	–

SMILES	Potency	activity change, negative = inhibition
CC(=O)Nc1ccc(NC(=O)Cn2cc3c(n2)CCCCC3)cc1	–	inactive: 22.5%
O=c1[nH]c2cc3c(cc2cc1CN(Cc1cccnc1)Cc1nnnn1Cc1ccco1)OCCO3	active: 39.8 µM	–
O=c1[nH]nc(SCc2nnc(-c3cccc(Cl)c3)o2)n1C1CCCCC1	inconclusive: 1.78 µM [inhibitor, full curve, poor fit]	–
O=C1NC(=S)S/C1=C\c1coc2ccc(O)cc2c1=O	inconclusive: 31.6 µM [inhibitor, single point]	–
Cc1ccc(C)c(NC(=O)CN(C)S(=O)(=O)c2ccccc2)c1	inconclusive: 79.4 µM [inhibitor, single point]	–
CCOC(=O)CC(NS(=O)(=O)c1ccc2[nH]cc(C(=O)O)c(=O)c2c1)c1ccc(OCC)c(OC)c1 (stereo unspecified)	active: 3.55 µM	–
O=C(Nc1c(Cl)cccc1Cl)c1cccc2c1C(=O)N(C1CCCCC1)C2	–	inactive: -2.18%
CC(=O)N(C)Cc1ccc(C(=O)CCl)cc1	inconclusive: 89.1 µM [inhibitor, single point]	–
CCC(=O)N1CCc2cc(Br)cc(S(=O)(=O)CCC(=O)N(C)c3cccc(C)c3)c21	active: 44.7 µM	–
CCOC(=O)C1CCCN(C(=O)c2ccc3c(c2)OCO3)C1 (stereo unspecified)	inconclusive: 79.4 µM [inhibitor, single point]	–
O=C(COC(=O)c1ccc([N+](=O)[O-])o1)Nc1cccc(S(=O)(=O)N2CCCCC2)c1	–	inactive: 1.28%
O=C(Nc1cccc(C(=O)O)c1)Nc1cccc2ccccc12	–	inactive: 6.09%
c1ccc(CCNc2nnnn2-c2ccccc2)cc1	inconclusive: 0.501 µM [inhibitor, partial curve, poor fit]	–
Cn1c(CNC(=O)C2CCC(=O)N(CCc3cccc(F)c3)C2)nc2ccccc21 (stereo unspecified)	inconclusive: 0.141 µM [inhibitor, full curve]	–
Cc1ccc(-n2ncc(C(=O)N3CCN(C4CCCCC4)CC3)c2C2CCN(C(=O)OC(C)(C)C)CC2)cc1C	–	inactive: 25.4%
COC(=O)c1ccc(N2CCN(CCNC(=O)Nc3ccc(OC)cc3)CC2)cc1	inconclusive: 50.1 µM [inhibitor, partial curve]	–
CCN(c1ccc(Cl)cc1)S(=O)(=O)c1nnc(NC(=O)c2ccco2)s1	inconclusive: 56.2 µM [inhibitor, single point]	–
COc1ccc(C(=O)Nc2cc(C)on2)cc1S(=O)(=O)N1CC(c2ccccc2)CC1=O (stereo unspecified)	inconclusive: 100 µM [inhibitor, single point]	–
Cc1ccc2c(c1)Cc1nc3ccccc3nc1-2	inconclusive: 11.2 µM [inhibitor, full curve, poor fit]	–
Cc1ccc(C)c(NC(=O)CCS(=O)(=O)c2cccc3nsnc23)c1	–	inactive: 35.2%
O=C(CCN1C(=O)c2ccncc2C1=O)Nc1cc(F)ccc1F	inconclusive: 0.141 µM [inhibitor, full curve, poor fit]	–
CC1=NOC(=O)/C1=C\c1ccc(-c2ccc(Cl)cc2Cl)o1	active: 39.8 µM	–
Cc1ccc(NC(=O)Cn2c(CCC(=O)O)ccc2-c2cccs2)cc1Cl	inconclusive: 100 µM [inhibitor, single point] and inconclusive: 8.91 µM [inhibitor, full curve, poor fit]	–
